Measurements from PubChem BioAssay AID2551 (National Center for Advancing Translational Sciences (NCATS), 2010).
In all, about 310,000 compounds went through this assay and about 17,000 (5.5%) were called active. The shares of active, inactive and inconclusive entries below differ from those in the screen. Calls come from the whole dose curve; as a rule, active = well fitted inhibition curve with a large enough effect; inconclusive = small, poorly fitted or top-dose-only effect, or effect the other way; inactive = no such curve, though single readings can be large or run the other way. A potency beside an inconclusive call is a rough fit, not a confirmed value.
% is set by controls: 0 for no effect and ±100 for the full control effect; potency is the fitted concentration of half-maximal effect.
Note: nearly all actives have a fitted effect of over 60% in size.

The chains behind the UniProt entries cited, without tags or fusion partners. Where a name states a change or a piece, a line headed by the entry shows the natural chain unless it says otherwise.
UniProt P51450: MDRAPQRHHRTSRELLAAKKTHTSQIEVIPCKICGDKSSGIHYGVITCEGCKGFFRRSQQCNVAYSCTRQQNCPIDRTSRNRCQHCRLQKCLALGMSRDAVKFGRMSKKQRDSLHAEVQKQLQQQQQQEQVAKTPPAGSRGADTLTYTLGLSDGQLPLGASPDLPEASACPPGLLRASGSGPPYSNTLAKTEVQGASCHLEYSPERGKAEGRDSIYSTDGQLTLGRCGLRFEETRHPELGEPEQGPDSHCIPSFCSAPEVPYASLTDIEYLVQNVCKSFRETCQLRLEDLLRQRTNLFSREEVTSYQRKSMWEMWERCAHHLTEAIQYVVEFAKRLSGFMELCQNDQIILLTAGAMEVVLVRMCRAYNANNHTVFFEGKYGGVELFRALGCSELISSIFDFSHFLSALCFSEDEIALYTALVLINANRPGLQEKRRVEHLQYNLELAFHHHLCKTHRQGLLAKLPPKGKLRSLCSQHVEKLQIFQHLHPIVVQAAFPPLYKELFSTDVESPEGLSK

These compounds were tested against Nuclear receptor ROR-gamma (Mus musculus) (UniProt P51450) (assay: qHTS for inhibitors of ROR gamma transcriptional activity). Details: Drosophila S2 Gal4-RORgamma UAS-luciferase reporter, 20 h; activity change, negative = inhibition: at 53.6 µM (top of the series).
Procedure, shortened: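 Schneider cells (Drosophila), stable Gal4 DBD–ROR gamma + UAS-luc; 1 hr cmpd preincubation; Cu2+ induction 700 uM final; 20 hr ambient; luminescence.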
For CCN1C(=O)C(=C2C=C(C)N(Cc3ccco3)C(C)=C2)C(=O)N(CC)C1=S, the Potency was inconclusive: 20 µM [activator, single point]. For CC(=O)N1CCCc2cc(S(=O)(=O)N3CCCC(C(=O)Nc4cccc(F)c4)C3)ccc21 (centres undefined), the Potency was inconclusive: 15.8 µM [activator, single point]. In the case of CCOc1cc(C2C(C#N)=C(N)Oc3c2c(=O)oc2ccccc32)ccc1OC(=O)c1cccs1 (centres undefined), the “activity change, negative = inhibition” value is reported as inactive: -6.49%. With COc1ccc(OC)c(NP(=O)(Oc2ccc(Cl)cc2)Oc2ccc(Cl)cc2)c1 the Potency was inconclusive: 14.1 µM [activator, partial curve]. With CC1(C)C[C@H]2C=C(C=O)[C@]3(C=O)C[C@]3(C)[C@H]2C1 the Potency was active: 1.41 µM. In the case of O=c1[nH]c(O)c(C=Nc2ccc(F)c(Cl)c2)c(=O)[nH]1, the “activity change, negative = inhibition” value is reported as inactive: 12.7%. CCOC(=O)c1ccc(NC(=O)CCOc2ccc(C)cc2)cc1 was tested, and the Potency was inconclusive: 1.41 µM [activator, single point]. O=c1[nH]cc(COCC(F)(F)C(F)(F)C(F)(F)F)c(=O)[nH]1 was tested, and the “activity change, negative = inhibition” value was inactive: 13.4%. COc1ccccc1Cn1c(SCC#N)nc2cc(C(=O)N3CCC4(CC3)OCCO4)ccc2c1=O was tested, and the Potency was inconclusive: 11.2 µM [activator, partial curve]. With CC1(C)C(=O)C=C[C@@]2(C)C1=C(O)C(=O)[C@@]1(C)C2CC[C@@]2(C)C(c3ccoc3)C[C@H]3O[C@@]321 (some centres undefined) the Potency was active: 8.91 µM. In the case of Cn1nc(OC(=O)Nc2ccc(Cl)cc2)cc1C(F)(F)F, the Potency is reported as inconclusive: 22.4 µM [inhibitor, single point]. For C[C@@H]1C2C[C@@]34COC(=O)C3=CC=C[C@H]4[C@@]13C[C@H](c1ccoc1)O[C@@H]3O2, the Potency was inconclusive: 17.8 µM [activator, partial curve, poor fit]. For COc1cc(/C=C2/C(=O)NC(=O)N(c3ccccc3)C2=O)ccc1O, the “activity change, negative = inhibition” value was inactive: 16.4%. With O=C(Cn1ncc2c3ccccc3n(Cc3ccc(F)cc3)c2c1=O)N1CCC2(CC1)OCCO2 the Potency was inconclusive: 3.16 µM [activator, partial curve, poor fit]. For CC(C)(C)NCC(O)c1cc(Cl)c(N)c(C(F)(F)F)c1 (centres undefined), the “activity change, negative = inhibition” value was inactive: 13.1%. Fc1ccccc1CCNCc1cccc2ccccc12 was tested, and the Potency was inconclusive: 35.5 µM [inhibitor, single point]. With Cc1ccc(N=Nc2cc(C)ccc2N)cc1 the Potency was inconclusive: 10 µM [inhibitor, single point]. In the case of CCC(C)n1c(O)c(/C=N/NC(=O)c2ccncc2)c(=O)[nH]c1=S (centres undefined), the Potency is reported as inconclusive: 31.6 µM [inhibitor, single point]. With CCCCCCC(=O)N/N=C/c1c(O)n(C(C)CC)c(=S)[nH]c1=O (centres undefined) the Potency was active: 10 µM. In the case of Cc1cccc(C)c1OP(N)(=O)OCC(F)(F)F (centres undefined), the “activity change, negative = inhibition” value is reported as inactive: 0.355%. C=CC(=C)C was tested, and the “activity change, negative = inhibition” value was inactive: 25.1%. For CCc1ccc(/C=C(/C#N)C(N)=S)cc1, the Potency was inconclusive: 15.8 µM [inhibitor, single point]. With O=C(c1ccc(Cl)cc1)C1CCCN(Cc2ccon2)C1 (centres undefined) the “activity change, negative = inhibition” value was inactive: -0.151%. With CC(=O)OC1C(=O)[C@]2(C)C(O)CC3OC[C@]3(OC(C)=O)C2[C@@H](OC(=O)c2ccccc2)[C@]2(O)CC(O)C(C)=C1C2(C)C (some centres undefined) the “activity change, negative = inhibition” value was inactive: -21.8%. In the case of CCOC(=O)c1cccc(NC2c3ccccc3C(=O)N2Cc2ccco2)c1 (centres undefined), the Potency is reported as inconclusive: 14.1 µM [activator, partial curve]. O=c1[nH]c(=S)n(Cc2ccc(F)cc2)c(O)c1/C=N/N1CCCCCC1 was tested, and the Potency was inconclusive: 22.4 µM [inhibitor, single point]. With Cc1ccc(-c2nc3ccccc3c(=O)n2-n2cccc2)cc1 the “activity change, negative = inhibition” value was inactive: 1.15%. N#Cc1c(/N=C/c2c(O)n(Cc3ccco3)c(=O)[nH]c2=O)sc2c1CCCC2 was tested, and the “activity change, negative = inhibition” value was inactive: 2.17%. With CC(Cc1ccc(C(C)(C)C)cc1)CN1CC(C)OC(C)C1 (centres undefined) the “activity change, negative = inhibition” value was inactive: -7.02%. With Cn1ncnc2c(=O)n(C)c(=O)nc1-2 the Potency was active: 0.0398 µM. With Cc1cccc(C(=O)OCc2cc3ccccc3[nH]c2=O)c1 the Potency was inconclusive: 3.55 µM [inhibitor, single point]. For C[C@H]1CCC[C@H](O)CCCCCc2cc(O)cc(O)c2C(=O)O1, the Potency was inconclusive: 35.5 µM [activator, single point]. c1ccc(-c2nnc(SCc3nc4ccccc4[nH]3)o2)cc1 was tested, and the Potency was inconclusive: 35.5 µM [inhibitor, single point]. With O=c1c2ccccc2nc(SCC2CCCCO2)n1-c1ccccc1 (centres undefined) the Potency was inconclusive: 7.08 µM [inhibitor, partial curve]. In the case of CC(=O)C1C2c3ccccc3OC1(C)N=c1s/c(=C/c3cn(C)nc3C)c(=O)n12 (centres undefined), the “activity change, negative = inhibition” value is reported as inactive: -0.124%. With O=C1C=C2C(=CCOC2O)O1 (centres undefined) the Potency was active: 1.12 µM. With O=C(NCc1ccccc1)Oc1cccc(Cl)c1 the Potency was inconclusive: 0.0355 µM [activator, full curve, poor fit]. Cn1c(=O)c2c(nc(SCc3ccccc3)n2Cc2ccc(Cl)cc2)n(C)c1=O was tested, and the Potency was inconclusive: 5.62 µM [activator, partial curve]. CCn1c(O)c(/C=N/NC(=O)c2ccccc2)c(=O)n(CC)c1=S was tested, and the Potency was inconclusive: 2.51 µM [inhibitor, full curve]. In the case of O=c1c2ccc(Cl)cc2[nH]c(=S)n1-c1cccnc1, the Potency is reported as active: 14.1 µM. C=C1N2CCC(CC2)C1(O)c1ccc(C)cc1 (centres undefined) was tested, and the “activity change, negative = inhibition” value was inactive: 0.857%. In the case of O=C(c1ccco1)C12CN3CN(CN(C3)C1)C2, the Potency is reported as inconclusive: 35.5 µM [inhibitor, single point]. With Oc1ccc2c3c1O[C@H]1c4c(c5ccccc5n4Cc4ccccc4)C[C@]4(O)[C@H](C2)N(CC2CC2)CC[C@@]314 the Potency was inconclusive: 35.5 µM [inhibitor, single point]. In the case of BrC1C(Br)C(Br)C(Br)C(Br)C1Br (centres undefined), the Potency is reported as active: 5.01 µM. CC(C)CCN1CCN(Cc2c(F)cccc2Cl)CC1CCO (centres undefined) was tested, and the Potency was inconclusive: 11.2 µM [inhibitor, single point]. C[C@]12CC(=CO)C(=O)C[C@@H]1CC[C@@H]1[C@@H]2CC[C@@]2(C)[C@H]1CC[C@]2(C)O was tested, and the Potency was inconclusive: 35.5 µM [inhibitor, single point]. With CCCC(=O)OC(C(Cl)(Cl)Cl)P(=O)(OC)OC (centres undefined) the Potency was inconclusive: 0.0063 µM [inhibitor, full curve, poor fit]. O=C(O)CC1OCC=C2CN3CCC45C6=CC(=O)C(=O)C([N+](=O)[O-])=C6NC4C1C2CC35 (centres undefined) was tested, and the Potency was inconclusive: 14.1 µM [inhibitor, partial curve]. CC(C)(C)c1ccc(-c2n[nH]c(=S)n2CCCN2CCOCC2)cc1 was tested, and the Potency was active: 7.94 µM. In the case of CCn1c(O)c(C=Nc2ccc(S(N)(=O)=O)cc2)c(=O)n(CC)c1=S, the “activity change, negative = inhibition” value is reported as inactive: -26.5%. For CC(C)(C)OC(=O)NNC(=S)NC1CCCCC1, the Potency was inconclusive: 11.2 µM [inhibitor, partial curve, poor fit]. With Cc1cccc(OP(=O)(Oc2cccc(C)c2)OC(c2ccccc2)C(F)(F)F)c1 (centres undefined) the Potency was inconclusive: 7.94 µM [activator, partial curve]. For C/C(=C\c1ccc(N(C)C)cc1)[N+](=O)[O-], the Potency was active: 7.08 µM. COc1cc(/C=C/c2nc3ccccc3c(=O)n2-c2ccccc2O)ccc1O was tested, and the “activity change, negative = inhibition” value was inactive: 32.2%. With CC1CN=C(Nc2ccc(N(C)C)cc2)S1 (centres undefined) the Potency was inconclusive: 0.447 µM [inhibitor, single point]. For CC1=C(O)C(=O)C=C2C1=CC=C1[C@]2(C)CC[C@@]2(C)C3C[C@](C)(C(=O)O)CC[C@@]3(C)CC[C@@]12C (some centres undefined), the Potency was active: 3.16 µM. With C#CCOc1ccc2c(c1)c(C(C)=O)c(C)n2Cc1ccccc1 the Potency was inconclusive: 12.6 µM [activator, single point]. For COc1cccc(C(=O)C2CCCN(Cc3cnn(C(C)C)c3)C2)c1 (centres undefined), the “activity change, negative = inhibition” value was inactive: -11.9%. With CC(C)CC(C)Nc1ccc(Nc2ccccc2)cc1 (centres undefined) the Potency was inconclusive: 17.8 µM [inhibitor, single point]. With C[C@H](CCC(=O)O)C[C@H](C)C[C@H](C)C(=O)/C=C(\O)[C@H](C)C[C@H](C)C/C=C/[C@@H](C)[C@@H](O)[C@@H](C)[C@@H](O)C[C@@H]1CC[C@@](C)(C2CC[C@@](C)([C@@H](C)O)O2)O1 (some centres undefined) the Potency was inconclusive: 0.398 µM [activator, partial curve, poor fit]. For Cc1nc2ccccc2c(=O)n1-c1ccncc1, the “activity change, negative = inhibition” value was inactive: 0.347%. With COC(=O)COc1cc(C)cc2oc(=O)c3c(c12)CCCC3 the Potency was inconclusive: 22.4 µM [activator, single point]. With CC(C)N1CC=C(c2c[nH]c3ccccc23)CC1 the Potency was inconclusive: 15.8 µM [activator, single point]. CN(C)c1ccc(N=Nc2ccccc2)cc1 was tested, and the Potency was inconclusive: 12.6 µM [inhibitor, single point]. In the case of COc1cc(/C=C2\C(=O)NC(=O)N(c3ccccc3)C2=O)cc(OC)c1O, the “activity change, negative = inhibition” value is reported as inactive: -32.1%. For COc1ccc(C2SCC(=O)Nc3c2c(C)nn3-c2ccccc2)cc1 (centres undefined), the “activity change, negative = inhibition” value was inactive: 40.1%. C[C@]12CC[C@H](O)C[C@H]1CCC1C2CC[C@]2(C)[C@@H](c3ccc(=O)oc3)C[C@H]3O[C@]132 (some centres undefined) was tested, and the “activity change, negative = inhibition” value was inactive: 9.31%. With CNCC(N)C(=O)O (centres undefined) the “activity change, negative = inhibition” value was inactive: -2.87%. CC1=CC(c2ccccc2)NC(=S)N1 (centres undefined) was tested, and the Potency was active: 11.2 µM. For Oc1cc(Cl)ccc1Oc1ccc(Cl)cc1Cl, the “activity change, negative = inhibition” value was inactive: 28%. With CCCCCCC(=O)N/N=C/c1c(O)n(CCCC)c(=S)[nH]c1=O the Potency was inconclusive: 11.2 µM [inhibitor, partial curve]. For C=CC(=O)OCC(CC)CCCC (centres undefined), the “activity change, negative = inhibition” value was inactive: -0.154%. In the case of COc1cc2[nH]c(=S)n(-c3ccccc3)c(=O)c2cc1OC, the Potency is reported as active: 3.98 µM. COC(=O)[C@]12C(=O)C(C)=C(O)[C@@]1(C)C(C)=CC1[C@@]34CC[C@@H](OC(C)=O)C(C)(C)C3C(C[C@]12C)OC4=O (some centres undefined) was tested, and the Potency was inconclusive: 25.1 µM [activator, single point].
